Results taken from US7759369B2, “Pyridine compounds for the treatment of prostaglandin mediated diseases” (Glaxo Group Limited, priority 2004, dated 2010).
Some of these results come from one statement about several compounds together.

Key:
EP3 receptors = biological target: T1, EP3 receptors (Homo sapiens, UniProt P43115); assay: human EP3 calcium mobilisation assay (CHO-K1 cells, PGE2, FLIPR); type: cell-based; conditions: free bases or sodium salts; averages of a number of experiments
T1 construct: expressed in transfected cells; host or cells: CHO-K1
T1 sequence (P43115 1-390): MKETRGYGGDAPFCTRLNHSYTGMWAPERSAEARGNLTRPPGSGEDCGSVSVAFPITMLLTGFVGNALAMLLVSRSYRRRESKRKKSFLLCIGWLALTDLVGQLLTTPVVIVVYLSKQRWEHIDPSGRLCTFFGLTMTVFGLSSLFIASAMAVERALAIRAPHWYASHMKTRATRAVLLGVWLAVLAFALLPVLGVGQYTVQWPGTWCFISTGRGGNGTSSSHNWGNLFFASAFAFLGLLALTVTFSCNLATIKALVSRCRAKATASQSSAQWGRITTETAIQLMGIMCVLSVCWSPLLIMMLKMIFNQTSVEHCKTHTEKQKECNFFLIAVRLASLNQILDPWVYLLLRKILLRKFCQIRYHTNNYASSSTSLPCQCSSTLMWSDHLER
Description: Briefly, the antagonist properties of compounds are assessed by their ability to inhibit the mobilisation of intracellular calcium ([Ca^2+]i) in response to activation of EP1 or EP3 receptors by the natural agonist hormone prostaglandin E2 (PGE2). Increasing concentrations of antagonist reduce the amount of calcium that a given concentration of PGE2 can mobilise. The net effect is to displace the PGE2 concentration-effect curve to higher concentrations of PGE2. The amount of calcium produced is assessed using a calcium-sensitive fluorescent dye such as Fluo-4, AM and a suitable instrument such as a Fluorimetric Imaging Plate Reader (FLIPR). Increasing amounts of [Ca^2+]i produced by receptor activation increase the amount of fluorescence produced by the dye and give rise to an increasing signal. The signal may be detected using the FLIPR instrument and the data generated may be analysed with suitable curve-fitting software.
The human EP1 or EP3 calcium mobilisation assay (hereafter referred to as ‘the calcium assay’) utilises Chinese hamster ovary-K1 (CHO-K1) cells into which a stable (pCIN; BioTechniques 20 (1996): 102-110) vector containing either EP1 or EP3 cDNA has previously been transfected. Cells are cultured in suitable flasks containing culture medium such as DMEM:F-12 supplemented with 10% v/v foetal calf serum, 2 mM L-glutamine, 0.25 mg/ml geneticin, 100 μM flurbiprofen and 10 µg/ml puromycin.
For assay, cells are harvested using a proprietary reagent that dislodges cells such as Versene. Cells are re-suspended in a suitable quantity of fresh culture media for introduction into a 384-well plate. Following incubation for 24 hours at 37° C. the culture media is replaced with a medium containing Fluo-4 and the detergent pluronic acid, and a further incubation takes place. Concentrations of compounds are then added to the plate in order to construct concentration-effect curves. This may be performed on the FLIPR in order to assess the agonist properties of the compounds. Concentrations of PGE2 are then added to the plate in order to assess the antagonist properties of the compounds.
The data so generated may be analysed by means of a computerised curve-fitting routine. The concentration of compound that elicits a half-maximal inhibition of the calcium mobilisation induced by PGE2 (pIC50) may then be estimated.

EP1 receptors = biological target: T2, EP1 receptors (Homo sapiens, UniProt P34995); assay: Binding assay for the human prostanoid EP1 receptor (competition with [3H]-PGE2); design: expressed in transfected cells; host or cells: CHO-K1 (membrane fraction); conditions: averages of a number of experiments; Example 3 as sodium salt
T2 sequence (P34995 1-402): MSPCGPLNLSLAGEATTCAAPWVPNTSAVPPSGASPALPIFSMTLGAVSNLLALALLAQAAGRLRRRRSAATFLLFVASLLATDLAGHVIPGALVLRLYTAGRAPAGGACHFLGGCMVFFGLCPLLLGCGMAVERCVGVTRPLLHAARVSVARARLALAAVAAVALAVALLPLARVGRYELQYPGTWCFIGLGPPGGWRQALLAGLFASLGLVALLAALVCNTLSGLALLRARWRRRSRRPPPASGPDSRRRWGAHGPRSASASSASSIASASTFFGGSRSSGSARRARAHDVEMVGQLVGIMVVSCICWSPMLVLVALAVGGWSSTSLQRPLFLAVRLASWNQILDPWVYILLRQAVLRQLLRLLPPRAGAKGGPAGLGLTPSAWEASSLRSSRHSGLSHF
Description: Binding Assay for the Human Prostanoid EP1 Receptor
Competition assay using [^3H]-PGE2.
Compound potencies are determined using a radioligand binding assay. In this assay compound potencies are determined from their ability to compete with tritiated prostaglandin E2 ([^3H]-PGE2) for binding to the human EP1 receptor.
This assay utilises Chinese hamster ovary-K1 (CHO-K1) cells into which a stable vector containing the EP1 cDNA has previously been transfected. Cells are cultured in suitable flasks containing culture medium such as DMEM:F-12 supplemented with 10% v/v foetal calf serum, 2 mM L-glutamine, 0.25 mg/ml geneticin, 10 μg/ml puromycin and 10 μM indomethacin.
Cells are detached from the culture flasks by incubation in calcium and magnesium free phosphate buffered saline containing 1 mM disodium ethylenediaminetetraacetic acid (Na2EDTA) and 10 μM indomethacin for 5 min. The cells are isolated by centrifugation at 250×g for 5 mins and suspended in an ice cold buffer such as 50 mM Tris, 1 mM Na2EDTA, 140 mM NaCl, 10 μM indomethacin (pH 7.4). The cells are homogenised using a Polytron tissue disrupter (2×10s burst at full setting), centrifuged at 48,000×g for 20 mins and the pellet containing the membrane fraction is washed (optional) three times by suspension and centrifugation at 48,000×g for 20 mins. The final membrane pellet is suspended in an assay buffer such as 10 mM 2-[N-morpholino]ethanesulphonic acid, 1 mM Na2EDTA, 10 mM MgCl2 (pH 6). Aliquots are frozen at −80° C. until required.
For the binding assay the cell membranes, competing compounds and [^3H]-PGE2 (3 nM final assay concentration) are incubated in a final volume of 100 μl for 30 min at 30° C. All reagents are prepared in assay buffer. Reactions are terminated by rapid vacuum filtration over GF/B filters using a Brandell cell harvester. The filters are washed with ice cold assay buffer, dried and the radioactivity retained on the filters is measured by liquid scintillation counting in Packard TopCount scintillation counter.
The data are analysed using non linear curve fitting techniques to determine the concentration of compound producing 50% inhibition of specific binding (IC50).

| SMILES | functional pKi value, human EP3 calcium mobilisation assay (EP3 receptors) | pIC50 value in the binding assay for the human prostanoid EP1 receptor (EP1 receptors) |
| --- | --- | --- |
| O=C([O-])c1cccc(Cc2cc(Cl)ccc2OC2CCCC2)n1.[Na+] [Example 19, Sodium 6-{[5-chloro-2-(cyclopentyloxy)phenyl]methyl}-2-pyridinecarboxylate] | ≤ 6.5 | ≥ 6 |
| O=C([O-])c1cc(Cl)cc(Cc2cc(Cl)ccc2OCc2ccc(Cl)cc2F)n1.[Na+] [Example 37, 4-Chloro-6-[(5-chloro-2-{[(4-chloro-2-fluorophenyl)-methyl]oxy}phenyl)methyl]-2-pyridinecarboxylic acid, sodium salt] | ≤ 6.5 | ≥ 6 |
| Cc1noc(C)c1S(=O)(=O)NC(=O)c1cccc(Cc2cc(Cl)ccc2OCc2ccc(Cl)cc2F)n1 [Example 36, 6-[(5-Chloro-2-{[(4-chloro-2-fluorophenyl)methyl]oxy}-phenyl)methyl]-N-[(3,5-dimethyl-4-isoxazolyl)sulphonyl]-2-pyridinecarboxamide] | ≤ 6.5 | ≥ 6 |
| CC(C)(C)Oc1ccc(Cl)cc1Cc1cccc(C(=O)O)n1 [Example 41, 6-({5-Chloro-2-[(1,1-dimethylethyl)oxy]phenyl}methyl)-2-pyridinecarboxylic acid] | ≤ 6.5 | – |
| O=C([O-])c1cccc(Cc2cc(Cl)ccc2OCc2ccccc2Cl)n1.[Na+] [Example 13, Sodium 6-[(5-chloro-2-{[(2-chlorophenyl)methyl]oxy}phenyl)methyl]-2-pyridinecarboxylate] | ≤ 6.5 | ≥ 6 |
| O=C([O-])c1cccc(Cc2cc(Cl)ccc2OCc2ccc(Cl)cc2Cl)n1.[Na+] [Example 12, Sodium 6-[(5-chloro-2-{[(2,4-dichlororophenyl)methyl]oxy}phenyl)methyl]-2-pyridinecarboxylate] | ≤ 6.5 | ≥ 6 |
| CC(C)Oc1ccc(Cl)cc1Cc1cccc(C(=O)[O-])n1.[Na+] [Example 16, Sodium 6-({5-chloro-2-[(1-methylethyl)oxy]phenyl}methyl)-2-pyridinecarboxylate] | ≤ 6.5 | ≥ 6 |
| O=C([O-])c1cccc(Cc2cc(Cl)ccc2OCc2ccc(F)cc2Cl)n1.[Na+] [Example 11, Sodium 6-[(5-chloro-2-{[(2-chloro-4-fluorophenyl)methyl]oxy}phenyl)methyl]-2-pyridinecarboxylate] | ≤ 6.5 | ≥ 6 |
| O=C(NS(=O)(=O)c1cccc(Br)c1)c1cccc(Cc2cc(Cl)ccc2OCc2ccc(Cl)cc2F)n1 [Example 34, N-[(3-Bromophenyl)sulphonyl]-6-[(5-chloro-2-{[(4-chloro-2-fluorophenyl)methyl]oxy}phenyl)-methyl]-2-pyridinecarboxamide] | ≤ 6.5 | ≥ 6 |
| O=C([O-])c1cncc(Cc2cc(Cl)ccc2OCc2ccc(F)cc2F)c1.[Na+] [Example 23, Sodium 5-[(5-chloro-2-{[(2,4-difluorophenyl)methyl]oxy}phenyl)methyl]-3-pyridinecarboxylate] | – | ≥ 6 |
| O=C([O-])c1cccc(Cc2cc(Cl)ccc2OCc2ccc(F)cc2)n1.[Na+] [Example 5, sodium 6-[(5-chloro-2-{[(4-fluorophenyl)methyl]oxy}phenyl)methyl]-2-pyridinecarboxylate] | – | ≥ 6 |
| O=C([O-])c1cncc(Cc2cc(Cl)ccc2OCc2c(F)cc(F)cc2F)c1.[Na+] [Example 24, Sodium 5-[(5-chloro-2-{[(2,4,6-trifluorophenyl)methyl]oxy}phenyl)methyl]-3-pyridinecarboxylate] | – | ≥ 6 |
| O=C([O-])c1cccc(Cc2cc(Cl)ccc2OCc2ccc(Cl)cc2F)n1.[Na+] [Example 3, Sodium 6-[(5-chloro-2-{[(4-chloro-2-fluorophenyl)methyl]oxy}phenyl)methyl]-2-pyridinecarboxylate] | ≤ 6.5 | – |
| O=C([O-])c1cccc(Cc2cc(Cl)ccc2OCc2ccccc2F)n1.[Na+] [Example 8, Sodium 6-[(5-chloro-2-{[(2-fluorophenyl)methyl]oxy}phenyl)methyl]-2-pyridinecarboxylate] | ≤ 6.5 | – |
| O=C([O-])c1cncc(Cc2cc(Cl)ccc2OCc2ccc(Cl)cc2F)c1.[Na+] [Example 26, Sodium 5-[(5-chloro-2-{[(4-chloro-2-fluorophenyl)methyl]oxy}phenyl)methyl]-3-pyridinecarboxylate] | – | ≥ 6 |
| O=C([O-])c1cncc(Cc2cc(Cl)ccc2OCc2ccc(F)cc2Cl)c1.[Na+] [Example 25, Sodium 5-[(5-chloro-2-{[(2-chloro-4-fluorophenyl)methyl]oxy}phenyl)methyl]-3-pyridinecarboxylate] | – | ≥ 6 |
| O=C([O-])c1cncc(Cc2cc(Cl)ccc2OCc2ccc(F)cc2)c1.[Na+] [Example 22, Sodium 5-[(5-chloro-2-{[(4-fluorophenyl)methyl]oxy}phenyl)methyl]-3-pyridinecarboxylate] | – | ≥ 6 |
| O=C(O)c1cccc(Cc2cc(Cl)ccc2OCc2ccccc2)n1 [Example 1, 6-({5-Chloro-2-[(phenylmethyl)oxy]phenyl}methyl)-2-pyridinecarboxylic acid] | – | ≥ 6 |
| O=C([O-])c1cccc(Cc2cc(Cl)ccc2OCc2ccc(F)c(F)c2F)n1.[Na+] [Example 7, Sodium 6-[(5-chloro-2-{[(2,3,4-trifluorophenyl)methyl]oxy}phenyl)methyl]-2-pyridinecarboxylate] | – | ≥ 6 |
